The numbers were not newly measured in article PMC12670427, “FDA Drug Repurposing Uncovers Modulators of Dopamine D2 Receptor Localization via Disruption of the NCS‑1 Interaction” (Journal of Medicinal Chemistry, 2025), which cites them from elsewhere.

For the data set the following is noted: known drug property listed in Supplementary Table 1, no reference given; cited from earlier work.

Regarding `CC(C)c1c(C(=O)Nc2ccccc2)c(-c2ccccc2)c(-c2ccc(F)cc2)n1CC[C@@H](O)C[C@@H](O)CC(=O)O` [Atorvastatin], the “Crossing the blood-brain barrier” value was “Yes”.
